Results deposited as PubChem BioAssay AID1224831 (NIAID, 2016).

Purpose: 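Retesting screen hits on the TLR4-driven TNF response with six separate siRNAs each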 (follow-up of hits)
Cell system: human THP-1 B5 monocytic leukaemia cells carrying a TNF promoter luciferase reporter, made macrophage-like with PMA
Reagents: single siRNA against human genes, 50 nM
Time to read-out: about 68 h of knock-down, then 4 h LPS
Conditions: LPS (Salmonella minnesota, TLR-grade) at 10 ng/ml for 4 h; PMA 5 ng/ml present during knock-down
Measurement: 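TNF promoter reporter read as dual luciferase ratio after 4 h LPS, normalised per plate to its median, given as replicate mean robust z-score per siRNA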
Scale: TNF reporter z-score: higher = stronger LPS-induced TNF reporter signal; z-score, median over gene's siRNAs: higher = stronger TNF reporter signal across the gene's siRNAs
Hit rule: 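Two-sided call: reduced or raised TNF reporter signal counts as active once mean z reaches about -1 or below, or about 1.5 or above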
Meaning of the calls: active = changed TNF reporter (either direction); inactive = little change
In all, the deposit lists about 3,500 reagents; shown is an unselected part. In the full data, 731 (21%) got an active call. 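Active means either lowered or raised reporter signal; the gene-median score did not drive the per-siRNA calls.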 The numbers tell different reagents against one gene apart. Reagent sequences are not shown.

TYMSOS #1 — TNF reporter z-score, replicate mean: -1.04; z-score, median over gene's siRNAs: -0.545; Outcome: active
TYMSOS #2 — TNF reporter z-score, replicate mean: -1.43; z-score, median over gene's siRNAs: -0.545; Outcome: active
TYMSOS #3 — TNF reporter z-score, replicate mean: -0.01; z-score, median over gene's siRNAs: -0.545; Outcome: inactive
TYMSOS #4 — TNF reporter z-score, replicate mean: -1.44; z-score, median over gene's siRNAs: -0.545; Outcome: active
TYMSOS #5 — TNF reporter z-score, replicate mean: 0.38; z-score, median over gene's siRNAs: -0.545; Outcome: inactive
TYMSOS #6 — TNF reporter z-score, replicate mean: -0.05; z-score, median over gene's siRNAs: -0.545; Outcome: inactive
NR4A1 #1 — TNF reporter z-score, replicate mean: 0.31; z-score, median over gene's siRNAs: -0.085; Outcome: inactive
NR4A1 #2 — TNF reporter z-score, replicate mean: 0.84; z-score, median over gene's siRNAs: -0.085; Outcome: inactive
NR4A1 #3 — TNF reporter z-score, replicate mean: -0.48; z-score, median over gene's siRNAs: -0.085; Outcome: inactive
NR4A1 #4 — TNF reporter z-score, replicate mean: 1.15; z-score, median over gene's siRNAs: -0.085; Outcome: inactive
NR4A1 #5 — TNF reporter z-score, replicate mean: -0.74; z-score, median over gene's siRNAs: -0.085; Outcome: inactive
NR4A1 #6 — TNF reporter z-score, replicate mean: -0.88; z-score, median over gene's siRNAs: -0.085; Outcome: inactive
TNFSF4 #1 — TNF reporter z-score, replicate mean: 1.16; z-score, median over gene's siRNAs: 1.05; Outcome: inactive
TNFSF4 #2 — TNF reporter z-score, replicate mean: 1.15; z-score, median over gene's siRNAs: 1.05; Outcome: inactive
TNFSF4 #3 — TNF reporter z-score, replicate mean: -0.2; z-score, median over gene's siRNAs: 1.05; Outcome: inactive
TNFSF4 #4 — TNF reporter z-score, replicate mean: -0.85; z-score, median over gene's siRNAs: 1.05; Outcome: inactive
TNFSF4 #5 — TNF reporter z-score, replicate mean: 0.95; z-score, median over gene's siRNAs: 1.05; Outcome: inactive
TNFSF4 #6 — TNF reporter z-score, replicate mean: 1.48; z-score, median over gene's siRNAs: 1.05; Outcome: inactive
HAPLN3 #1 — TNF reporter z-score, replicate mean: 0.37; z-score, median over gene's siRNAs: 1.57; Outcome: inactive
HAPLN3 #2 — TNF reporter z-score, replicate mean: 1.92; z-score, median over gene's siRNAs: 1.57; Outcome: active
HAPLN3 #3 — TNF reporter z-score, replicate mean: 1.23; z-score, median over gene's siRNAs: 1.57; Outcome: inactive
HAPLN3 #4 — TNF reporter z-score, replicate mean: 4.74; z-score, median over gene's siRNAs: 1.57; Outcome: active
HAPLN3 #5 — TNF reporter z-score, replicate mean: 6.07; z-score, median over gene's siRNAs: 1.57; Outcome: active
HAPLN3 #6 — TNF reporter z-score, replicate mean: -0.67; z-score, median over gene's siRNAs: 1.57; Outcome: inactive
DRC1 #1 — TNF reporter z-score, replicate mean: -0.3; z-score, median over gene's siRNAs: -0.195; Outcome: inactive
DRC1 #2 — TNF reporter z-score, replicate mean: -0.04; z-score, median over gene's siRNAs: -0.195; Outcome: inactive
DRC1 #3 — TNF reporter z-score, replicate mean: -2.09; z-score, median over gene's siRNAs: -0.195; Outcome: active
DRC1 #4 — TNF reporter z-score, replicate mean: -0.4; z-score, median over gene's siRNAs: -0.195; Outcome: inactive
DRC1 #5 — TNF reporter z-score, replicate mean: -0.09; z-score, median over gene's siRNAs: -0.195; Outcome: inactive
DRC1 #6 — TNF reporter z-score, replicate mean: 0.25; z-score, median over gene's siRNAs: -0.195; Outcome: inactive

Records listed so far called active (7):
TYMSOS #1 — TNF reporter z-score, replicate mean: -1.04; z-score, median over gene's siRNAs: -0.545; Outcome: active
TYMSOS #2 — TNF reporter z-score, replicate mean: -1.43; z-score, median over gene's siRNAs: -0.545; Outcome: active
TYMSOS #4 — TNF reporter z-score, replicate mean: -1.44; z-score, median over gene's siRNAs: -0.545; Outcome: active
HAPLN3 #2 — TNF reporter z-score, replicate mean: 1.92; z-score, median over gene's siRNAs: 1.57; Outcome: active
HAPLN3 #4 — TNF reporter z-score, replicate mean: 4.74; z-score, median over gene's siRNAs: 1.57; Outcome: active
HAPLN3 #5 — TNF reporter z-score, replicate mean: 6.07; z-score, median over gene's siRNAs: 1.57; Outcome: active
DRC1 #3 — TNF reporter z-score, replicate mean: -2.09; z-score, median over gene's siRNAs: -0.195; Outcome: active
